Data as given in PubChem BioAssay AID1259259 (Sanger Institute, 2017).
Aim: 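Kinase silencing that lowers colorectal cancer cell viability alone or with drugs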 (primary screen). Cells: SW1463 human colorectal cancer cells. Knock-down reagent: siRNA pool against human genes. Conditions: DMSO vehicle, or one anchor drug: BYL719 at 1 µM, cetuximab at 5 µg/ml, or trametinib at 10 nM. Measured: 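Viability as fraction of control pool 2 (non-targeting), replicate mean; knock-down robust z-score without any drug; synergy score averaged for each anchor drug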. Reading the numbers: robust z-score, knock-down alone: higher = more viable cells after knock-down; viability, knock-down alone: higher = more viable cells. Units: viability, knock-down alone in fraction of control. Hit rule: 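a robust z-score under -3 for knock-down with no drug marks the gene as essential, meaning viability loss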. Meaning of the calls: active = essential: viability loss from knock-down alone; inactive = no change from knock-down alone.
The deposit covers 794 reagents; below is an unselected part. In the full data, 9 (1.1%) are marked active. 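Calls rest on knock-down alone, not drug synergy; viability values seem capped at 1.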 Entries without a mark were called inactive. Further read-outs or replicates are left out here. Not stated in the record: the amount of reagent, the time to read-out.

What is on record for TBX3?
robust z-score, knock-down alone: 0.756; viability, knock-down alone: 0.976

With NEK1, how do the results read?
robust z-score, knock-down alone: 1.13; viability, knock-down alone: 1

For TP53RK, what was measured?
robust z-score, knock-down alone: 0.861; viability, knock-down alone: 0.983

With BUB1B, what does the deposit list?
robust z-score, knock-down alone: 1.13; viability, knock-down alone: 1

With DCLK2, what does the deposit list?
robust z-score, knock-down alone: 1.13; viability, knock-down alone: 1

What is on record for TWF1?
robust z-score, knock-down alone: 0.533; viability, knock-down alone: 0.962

What did the screen give for CDK20?
robust z-score, knock-down alone: -1.18; viability, knock-down alone: 0.852

What did the screen give for CAMK2D?
robust z-score, knock-down alone: 0.778; viability, knock-down alone: 0.978

With RYK, how do the results read?
robust z-score, knock-down alone: 1.08; viability, knock-down alone: 0.997

Which result is listed for RET?
robust z-score, knock-down alone: 0.0593; viability, knock-down alone: 0.931

For SRC, how do the results read?
robust z-score, knock-down alone: -1.25; viability, knock-down alone: 0.848

For RPS6KC1, what was measured?
robust z-score, knock-down alone: -0.804; viability, knock-down alone: 0.876

Which result is listed for TYRO3?
robust z-score, knock-down alone: -1.55; viability, knock-down alone: 0.828

Look-ups from above.
For “viability, knock-down alone”, CDK20 has 0.852
TYRO3, robust z-score, knock-down alone: -1.55

The list goes on.
Which result is listed for STK17A?
robust z-score, knock-down alone: 0.216; viability, knock-down alone: 0.942

For PRKD3, how do the results read?
robust z-score, knock-down alone: -0.103; viability, knock-down alone: 0.921

Which result is listed for PFKFB3?
robust z-score, knock-down alone: 0.498; viability, knock-down alone: 0.96

For GRK4, what was measured?
robust z-score, knock-down alone: 1.1; viability, knock-down alone: 0.998

With PDK3, how do the results read?
robust z-score, knock-down alone: 0.505; viability, knock-down alone: 0.96

Which result is listed for CSNK1A1?
robust z-score, knock-down alone: 0.859; viability, knock-down alone: 0.983

With TLK2, what was measured?
robust z-score, knock-down alone: 1.13; viability, knock-down alone: 1

What is on record for AURKA?
robust z-score, knock-down alone: -3.3 (active); viability, knock-down alone: 0.716

For MAP3K21, how do the results read?
robust z-score, knock-down alone: -0.17; viability, knock-down alone: 0.917

With CAMKV, what does the deposit list?
robust z-score, knock-down alone: -0.652; viability, knock-down alone: 0.886

How did the screen score PTGS1?
robust z-score, knock-down alone: -0.896; viability, knock-down alone: 0.87

What is on record for MAP3K20?
robust z-score, knock-down alone: 0.39; viability, knock-down alone: 0.953

How did the screen score ITPK1?
robust z-score, knock-down alone: 1.13; viability, knock-down alone: 1

With INSR, what does the deposit list?
robust z-score, knock-down alone: 1.13; viability, knock-down alone: 1

What did the screen give for NEK4?
robust z-score, knock-down alone: 1.13; viability, knock-down alone: 1
